We go through two substances from article PMC4633129.

Protein sequences, listed by entry. Tags and fused reporters are not part of them.
UniProt P52631: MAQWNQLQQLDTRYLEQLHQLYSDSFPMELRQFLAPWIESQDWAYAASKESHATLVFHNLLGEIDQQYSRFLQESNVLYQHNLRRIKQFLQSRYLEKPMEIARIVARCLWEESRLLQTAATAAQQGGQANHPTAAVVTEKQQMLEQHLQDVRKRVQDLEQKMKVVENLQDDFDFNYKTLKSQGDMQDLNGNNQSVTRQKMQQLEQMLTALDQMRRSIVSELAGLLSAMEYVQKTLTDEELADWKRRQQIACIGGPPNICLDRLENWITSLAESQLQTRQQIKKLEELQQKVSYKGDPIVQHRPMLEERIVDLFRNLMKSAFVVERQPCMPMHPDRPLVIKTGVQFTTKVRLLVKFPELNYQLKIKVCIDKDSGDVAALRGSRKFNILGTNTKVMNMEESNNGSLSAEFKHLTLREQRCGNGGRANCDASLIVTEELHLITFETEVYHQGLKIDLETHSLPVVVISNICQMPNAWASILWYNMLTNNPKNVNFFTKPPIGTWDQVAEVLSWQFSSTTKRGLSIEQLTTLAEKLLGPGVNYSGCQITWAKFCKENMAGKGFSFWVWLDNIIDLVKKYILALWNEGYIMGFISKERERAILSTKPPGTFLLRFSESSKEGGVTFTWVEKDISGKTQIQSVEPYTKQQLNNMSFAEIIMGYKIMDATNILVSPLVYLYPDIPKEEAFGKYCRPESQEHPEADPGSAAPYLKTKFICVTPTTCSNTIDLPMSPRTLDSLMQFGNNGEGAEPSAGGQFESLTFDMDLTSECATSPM

These are yes or no findings as the source states them, for the method shown. Binding seen in cells or lysates may run through a third protein. Some entries that bind do so weakly or less than the wild type. Where a sequence is shown, tags or fusion partners need not be part of it.

The target of the assay is T1, FLAG-tagged PHB1 (prohibitin 1) (UniProt P35232).
T1 sequence: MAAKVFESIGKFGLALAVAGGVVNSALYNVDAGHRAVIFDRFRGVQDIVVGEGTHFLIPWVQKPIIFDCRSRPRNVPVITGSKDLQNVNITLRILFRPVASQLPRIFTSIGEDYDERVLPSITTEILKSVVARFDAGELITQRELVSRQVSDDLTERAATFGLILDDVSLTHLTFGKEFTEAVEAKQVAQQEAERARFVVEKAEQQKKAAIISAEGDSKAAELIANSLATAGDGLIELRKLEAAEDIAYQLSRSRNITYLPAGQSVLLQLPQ
The assay is described as follows: co-IP; anti-FLAG M2 antibody with protein G Plus/A-agarose from lysates of H9c2 cells transfected with FLAG-PHB1 and FLAG-PHB2; cells incubated 0, 15 or 30 min with FL3 (100 nM) before lysis; IP buffer 20 mM Tris-HCl, 5 M NaCl (so in the source), 2 mM EDTA, 1% Triton X-100; western blot with anti-STAT3 or anti-phospho-STAT3. On the technique in general: In western blotting, separated proteins are transferred to a membrane and probed.

For the substance “phospho-STAT3 (from UniProt P52631 1-770)”, the binding result is “binds”.

STAT3 (from UniProt P52631 1-770): the binding result is “binds”.
